Reference: patent US12594252B2, “Methods for treating inflammatory skin conditions” (JOURNEY MEDICAL CORPORATION, priority 2018, dated 2026)
At least one compound was matched to its structure with a doubt left.

System: subjects diagnosed with papulopustular rosacea
Test: 16-week, multi-center, randomized, double-blind, parallel-group, controlled efficacy study
Format: in vivo, human
Protocol: The pharmaceutical compositions as shown in Example 1 and 3 were studied in a 16-week, multi-center, randomized, double-blind, parallel-group, controlled study to evaluate efficacy. Subjects, who were at least 18 years old, diagnosed with papulopustular rosacea were randomized to 4 different treatment groups (50 subjects each in groups 1 to 4). Each subject was allocated to one of the treatment groups, receiving a single dose of Example 1 (Group 1) and Example 3 (Group 2): […]®-40 mg doxycycline capsules (Group 3); and placebo capsules (Group 4), orally for 16 weeks. Subjects' visits were scheduled at screening, baseline (day 1), and weeks 4, 8, 12 and 16. Clinical assessments of efficacy was conducted based on, proportion of subjects with IGA 'treatment success (reduction in IGA grade)' and reduction in total inflammatory lesion count (sum of papules, pustules, and nodules) from baseline (day 1) to weeks 4, 8, 12 and 16. The results are shown in following table 9 (IGA 'treatment success), table 10 (total inflammatory lesion change), table 11 (P values) and FIG. 6, FIG. 7, FIG. 8.

SMILES: CN(C)c1ccc(O)c2c1C[C@H]1C[C@H]3[C@H](N(C)C)C(O)=C(C(N)=O)C(=O)[C@@]3(O)C(O)=C1C2=O [minocycline, [4S-(4α,4aα,5aα,12aα)]-4,7-Bis(dimethylamino)-1,4,4a,5,5a,6,11,12a-octahydro-3,10,12,12a-tetrahydroxy-1,11-dioxo-2-naphthacenecarboxamide]
- efficacy for treating rosacea as compared to doxycycline (at a half dose): equivalent efficacy
- efficacy for treating rosacea as compared to doxycycline (at an equivalent dose): improved efficacy
- % reduction in lesion counts as compared to doxycycline (40 mg) at a whole dose (minocycline about 20 mg, half dose): equivalent or greater
